Results deposited as PubChem BioAssay AID504784 (Drosophila RNAi Screening Center, 2011).
The deposit covers about 17,000 reagents; this is an unselected part of those that have a named target and a result. 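Each column is one replicate's B-score; the combined score over replicates was not deposited, so single values may mislead.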 Reagents against one gene are numbered here. Names joined by + are all predicted targets of the reagent. Reagent sequences are not shown.

- Test: 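Genome-wide knock-down for genes giving too much or too little stored lipid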 (primary screen)
- System: Drosophila Kc167 embryonic cells
- Reagents: long dsRNA against Drosophila genes, about 250 ng dsRNA per well
- Time to read-out: 4 days
- Challenge: cells fed 400 µM oleic acid bound to BSA
- Read-out: 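Cells imaged and segmented; ratio of lipid droplet area to nuclear area, log-transformed, then normalised as a B-score over the screen; higher means more stored lipid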
- Scale: droplet/nuclear area B-score: higher = more stored lipid (overstorage)

gene | reagent no. | droplet/nuclear area B-score, replicate 1 | droplet/nuclear area B-score, replicate 2 | droplet/nuclear area B-score, replicate 3
CG10347 | 1 | 1.14 | 1.56 | 1.81
CG31445 | 1 | 0.259 | 4.63 | –
CG15614 | 1 | 2.78 | 0.303 | –
CG17470 | 1 | -1.86 | 0.378 | –
CG4438 | 1 | 1.49 | -1.12 | –
CG31661 | 1 | -0.815 | 0.694 | –
LanB2 (Laminin B2) | 1 | -0.74 | 0.776 | –
elfless | 1 | -1.37 | -1.09 | –
chk (chaski) | 1 | -0.536 | -2.58 | –
CSN6 (COP9 signalosome subunit 6) | 1 | 0.401 | -0.0935 | –
CG31267 | 1 | 0.14 | -1.32 | –
CG14424 | 1 | 0.043 | -0.739 | –
CG2145 | 1 | -0.734 | 0.13 | -1.42
CG7365 | 1 | -0.912 | -0.846 | -0.625
CG15909 | 1 | 1.03 | 1.81 | –
CG17024 (retired record) | 1 | 0.349 | -1.62 | –
CG31921 | 1 | 1.07 | 0.508 | –
CG13937 | 1 | -0.664 | 0.568 | –
CG9368 | 1 | -0.178 | 2.16 | 0.00197
wash (washout) | 1 | -0.179 | 0.135 | –
Npc2e (Niemann-Pick type C-2e) | 1 | -0.0131 | 0.0477 | –
Npc2e (Niemann-Pick type C-2e) | 2 | 2.4 | -0.859 | –
Pal1 + Pdrg1 | 1 | 0.518 | -0.816 | –
Arl6 (ADP ribosylation factor-like 6) | 1 | 0.159 | -0.693 | –
EAChm (Enhancer of Acetyltransferase Chameau) | 1 | -1.89 | -2.53 | –
CG14545 | 1 | -0.138 | 0.0149 | –
CG34125 | 1 | -0.294 | 0.753 | –
CG6254 | 1 | -0.246 | -0.731 | –
CG10324 | 1 | -1.32 | 1.51 | –
Gsc (Goosecoid) | 1 | -0.56 | 1.32 | –
CG31915 | 1 | 1.56 | 1.34 | –
NLaz (Neural Lazarillo) | 1 | 0.766 | -0.448 | –
CG13561 | 1 | -0.419 | -1.62 | –
Gld (Glucose dehydrogenase) | 1 | -0.494 | 0.412 | –
CG8997 | 1 | 0.00197 | 3.94 | –
Dolk (Dolichol kinase) | 1 | -0.429 | -0.742 | –
Rab21 | 1 | -0.364 | -1.37 | –
na (narrow abdomen) | 1 | 0.035 | -0.498 | –
ssp3 (short spindle 3) | 1 | -1.02 | -0.505 | –
ssp3 (short spindle 3) | 2 | -0.553 | -1.19 | –
Kank | 1 | -0.639 | 0.604 | –
Kank | 2 | 0.17 | -1.74 | –
Edem2 (ER degradation enhancer, mannosidase alpha-like 2) | 1 | 1.34 | 0.57 | –
SamDC (S-adenosylmethionine decarboxylase) | 1 | 0.262 | 0.669 | –
mRpL20 (mitochondrial ribosomal protein L20) | 1 | 2.3 | 0.823 | –
polyph (polyphemus) | 1 | -1.63 | -1.16 | –
RpS26 (Ribosomal protein S26) | 1 | 2.42 | 1.27 | –
RhoGAP102A (Rho GTPase activating protein at 102A) | 1 | -1.11 | -0.0132 | –
rg (rugose) | 1 | -0.389 | -3.23 | 0.472
rg (rugose) | 2 | -0.715 | 0.507 | –
gkt (glaikit) | 1 | 0.511 | -0.841 | –
CG33218 (retired record) | 1 | -0.591 | 1.11 | –
CG13538 | 1 | 0.395 | 0.802 | –
CG7006 | 1 | -0.748 | 0.441 | –
CG7406 | 1 | -1.25 | 0.293 | –
CG14011 | 1 | -2.65 | 1.96 | –
CG31321 | 1 | 0.662 | 2.92 | –
CG11710 | 1 | -0.207 | 0.78 | –
PIG-H + Kmn2 | 1 | 0.905 | -0.288 | –
Cdk5 (Cyclin-dependent kinase 5) | 1 | 0.968 | -1.05 | –
CG6034 | 1 | -0.000143 | -0.795 | –
Actbeta (Activin-beta) | 1 | 1.31 | 0.422 | –
Actbeta (Activin-beta) | 2 | 0.216 | -0.471 | –
CG18599 | 1 | -0.355 | 0.943 | 1.53
CG18599 | 2 | -3.44 | -3.02 | –
CG18599 | 3 | -1.09 | 0.873 | –
CG11159 | 1 | 0.639 | -0.502 | –
CG31342 | 1 | 0.000816 | -0.425 | –
CG31342 | 2 | -0.173 | 1.88 | –
Sec61alpha (Sec61 alpha subunit) | 1 | 0.108 | 1.38 | –
CG16789 | 1 | 1.24 | -0.0162 | –
CG13171 | 1 | 0.122 | -0.575 | –
MICAL-like | 1 | -0.0435 | 1.01 | –
CG34109 | 1 | -0.0312 | -1.97 | –
CG34109 | 2 | 1.92 | -0.262 | –
CG34109 | 3 | 1.43 | 0.379 | –
plh (pasang lhamu) | 1 | 0.0468 | -1.5 | –
His3.3B (Histone H3.3B) | 1 | -0.232 | -1.61 | 0.163
His3.3B (Histone H3.3B) | 2 | 1.45 | 0.683 | -0.825
SNF4Agamma (SNF4/AMP-activated protein kinase gamma subunit) | 1 | 0.564 | 0.846 | –
SNF4Agamma (SNF4/AMP-activated protein kinase gamma subunit) | 2 | -1.84 | 1.24 | –
SNF4Agamma (SNF4/AMP-activated protein kinase gamma subunit) | 3 | -1.62 | -2.36 | –
SNF4Agamma (SNF4/AMP-activated protein kinase gamma subunit) | 4 | 1.98 | 0.307 | –
CG42362 + CG42363 | 1 | -1.49 | 0.872 | –
caps (capricious) | 1 | 2.56 | 0.702 | –
caps (capricious) | 2 | 1.97 | 1.51 | –
CG8004 | 1 | -0.429 | 1.96 | 1.14
Fadd (Fas-associated death domain) | 1 | -1.1 | 1.49 | –
CG15930 | 1 | 0.633 | -0.0141 | –
PNUTS (Phosphatase 1 nuclear targeting subunit) | 1 | -0.487 | 0.4 | –
PNUTS (Phosphatase 1 nuclear targeting subunit) | 2 | -0.775 | -1.25 | –
CG10005 | 1 | -0.218 | 0.00263 | –
CG10651 | 1 | -0.126 | -0.389 | –
CG14355 | 1 | 7.97 | 0.00624 | –
CG7985 | 1 | 0.529 | 0.0903 | –
CG17650 | 1 | -0.73 | -0.365 | –
Dlip3 (Dorsal interacting protein 3) | 1 | 0.452 | 1.39 | –
CG4229 | 1 | -0.0599 | 0.434 | 0.102
Rnp4F (RNA-binding protein 4F) | 1 | -0.608 | -1.19 | -1.1
CG2157 | 1 | -2.77 | -2.76 | -0.454
Adh + Adhr | 1 | 1.16 | 0.438 | –
Adh + Adhr | 2 | 0.835 | 0.654 | –
CG13003 | 1 | – | 0.965 | –
Awh (Arrowhead) | 1 | -0.627 | -0.588 | –
Trc8 (TRC8 ring finger protein) | 1 | -0.0212 | 3.28 | –

Single entries from the entries so far:
Result of PIG-H + Kmn2 in “droplet/nuclear area B-score, replicate 1”: 0.905
For “droplet/nuclear area B-score, replicate 1”, Arl6 (ADP ribosylation factor-like 6) has 0.159
Under “droplet/nuclear area B-score, replicate 2”, CG31342 #2 has 1.88
Result of Edem2 (ER degradation enhancer, mannosidase alpha-like 2) under “droplet/nuclear area B-score, replicate 2”: 0.57
Under “droplet/nuclear area B-score, replicate 1”, Cdk5 (Cyclin-dependent kinase 5) shows 0.968
Entry for RhoGAP102A (Rho GTPase activating protein at 102A) under “droplet/nuclear area B-score, replicate 2”: -0.0132
